From paper doi:10.1101/383638
Results are given in words; binding and its absence hold for the method and conditions named. In cells and extracts the contact can be indirect. Some entries that bind do so weakly or less than the wild type. For some of these results: Sequences can lack the tags named with a protein.

Key:
[1] = molecular target: T1, TgROP18 of RH strain (bait of the BiFC screen) (Toxoplasma gondii (RH strain, type I)) (UniProt Q2PAY2); assay: split reporter
T1 sequence: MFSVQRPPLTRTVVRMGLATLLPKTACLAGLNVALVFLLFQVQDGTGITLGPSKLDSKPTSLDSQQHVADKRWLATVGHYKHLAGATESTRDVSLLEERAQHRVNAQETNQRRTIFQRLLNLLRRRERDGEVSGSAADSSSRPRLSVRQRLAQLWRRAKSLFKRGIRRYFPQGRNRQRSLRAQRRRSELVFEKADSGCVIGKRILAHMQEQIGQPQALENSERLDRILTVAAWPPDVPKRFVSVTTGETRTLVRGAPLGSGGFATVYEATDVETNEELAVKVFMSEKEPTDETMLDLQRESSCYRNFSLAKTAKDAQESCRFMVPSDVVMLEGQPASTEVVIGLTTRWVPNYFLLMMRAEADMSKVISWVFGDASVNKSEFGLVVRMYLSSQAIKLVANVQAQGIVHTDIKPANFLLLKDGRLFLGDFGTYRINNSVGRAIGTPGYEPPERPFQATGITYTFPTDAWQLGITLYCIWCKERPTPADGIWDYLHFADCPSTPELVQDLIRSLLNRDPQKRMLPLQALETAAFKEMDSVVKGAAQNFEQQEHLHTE

[2] = molecular target: T2, P2X1 from pEYFP-C1-P2X1 (FRET construct) (human) (UniProt P51575); assay: FRET or BRET
T2 sequence: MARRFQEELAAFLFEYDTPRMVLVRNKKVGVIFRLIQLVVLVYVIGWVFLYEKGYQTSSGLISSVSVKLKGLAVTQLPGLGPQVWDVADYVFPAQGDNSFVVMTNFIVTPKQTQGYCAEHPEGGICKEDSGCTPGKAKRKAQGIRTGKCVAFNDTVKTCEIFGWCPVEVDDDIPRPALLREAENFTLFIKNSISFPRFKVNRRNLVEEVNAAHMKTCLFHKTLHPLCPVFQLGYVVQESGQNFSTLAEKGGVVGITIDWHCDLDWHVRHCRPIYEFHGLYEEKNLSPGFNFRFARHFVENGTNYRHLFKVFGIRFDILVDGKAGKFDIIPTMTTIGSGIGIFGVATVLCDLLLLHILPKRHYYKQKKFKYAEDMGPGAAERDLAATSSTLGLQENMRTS

[3] = molecular target: T3, HA-tagged full-length P2X1 (pcDNA3.1(+)-P2X1-HA) (human) (UniProt P51575); assay: co-IP
T3 sequence: T2 sequence

[4] = molecular target: HA-tagged P2X1 with C terminal deletion (pcDNA3.1(+)-P2X1Δ339-399-HA) (human) (UniProt P51575); assay: co-IP

B1: P2X1 (hit of the BiFC screen of human targets) (receptor, UniProt P51575 1-399)
chain: T2 sequence
Question: Which binding [1] does the source give for B1 here?
Answer: binds

B2: ROP18 from pECFP-N1-ROP18 (FRET construct) (protein, UniProt Q2PAY2 1-554)
chain: T1 sequence
Question: With B2 as the binder, how does the binding [2] read?
Answer: binds

B3: Flag-tagged TgROP18 (pcDNA3.1(+)-ROP18-3×Flag) (protein, UniProt Q2PAY2 1-554)
chain: T1 sequence
Question: Which binding [3] does the source give for B3 here?
Answer: binds

Question: What about the binding [4] of the same binder?
Answer: no binding
